Results as given in doi:10.1101/2025.07.25.666749.
No constants are given. Whether binding was seen depends on the method and setting. Binding seen in cells or lysates may run through a third protein. A yes stands for co-enrichment or nearness to the bait. Other partners may have been found.

T1: ZFP36L1 (endogenous) (human (endogenous in primary T cells)) (UniProt Q07352)
T1 sequence: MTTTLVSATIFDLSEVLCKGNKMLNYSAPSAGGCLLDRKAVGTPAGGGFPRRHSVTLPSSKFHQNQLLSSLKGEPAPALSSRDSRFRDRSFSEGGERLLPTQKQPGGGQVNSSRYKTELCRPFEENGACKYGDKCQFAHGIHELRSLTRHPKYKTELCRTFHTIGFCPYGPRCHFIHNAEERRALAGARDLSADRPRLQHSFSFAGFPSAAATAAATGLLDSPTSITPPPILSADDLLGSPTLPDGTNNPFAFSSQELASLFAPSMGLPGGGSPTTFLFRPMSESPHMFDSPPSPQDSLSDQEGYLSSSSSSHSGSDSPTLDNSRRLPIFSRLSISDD

B1: WDR11 (protein, UniProt Q9BZH6 1-1224)
chain: MLPYTVNFKVSARTLTGALNAHNKAAVDWGWQGLIAYGCHSLVVVIDSITAQTLQVLEKHKADVVKVKWARENYHHNIGSPYCLRLASADVNGKIIVWDVAAGVAQCEIQEHAKPIQDVQWLWNQDASRDLLLAIHPPNYIVLWNADTGTKLWKKSYADNILSFSFDPFDPSHLTLLTSEGIVFISDFSPSKPPSGPGKKVYISSPHSSPAHNKLATATGAKKALNKVKILITQEKPSAEFITLNDCLQLAYLPSKRNHMLLLYPREILILDLEVNQTVGVIAIERTGVPFLQVIPCFQRDGLFCLHENGCITLRVRRSYNNIFTTSNEEPDPDPVQELTYDLRSQCDAIRVTKTVRPFSMVCCPVNENAAALVVSDGRVMIWELKSAVCNRNSRNSSSGVSPLYSPVSFCGIPVGVLQNKLPDLSLDNMIGQSAIAGEEHPRGSILREVHLKFLLTGLLSGLPAPQFAIRMCPPLTTKNIKMYQPLLAVGTSNGSVLVYHLTSGLLHKELSIHSCEVKGIEWTSLTSFLSFATSTPNNMGLVRNELQLVDLPTGRSIAFRGERGNDESAIEMIKVSHLKQYLAVVFRDKPLELWDVRTCTLLREMSKNFPTITALEWSPSHNLKSLRKKQLATREAMARQTVVSDTELSIVESSVISLLQEAESKSELSQNISAREHFVFTDIDGQVYHLTVEGNSVKDSARIPPDGSMGSITCIAWKGDTLVLGDMDGNLNFWDLKGRVSRGIPTHRSWVRKIRFAPGKGNQKLIAMYNDGAEVWDTKEVQMVSSLRSGRNVTFRILDVDWCTSDKVILASDDGCIRVLEMSMKSACFRMDEQELTEPVWCPYLLVPRASLALKAFLLHQPWNGQYSLDISHVDYPENEEIKNLLQEQLNSLSNDIKKLLLDPEFTLLQRCLLVSRLYGDESELHFWTVAAHYLHSLSQEKSASTTAPKEAAPRDKLSNPLDICYDVLCENAYFQKFQLERVNLQEVKRSTYDHTRKCTDQLLLLGQTDRAVQLLLETSADNQHYYCDSLKACLVTTVTSSGPSQSTIKLVATNMIANGKLAEGVQLLCLIDKAADACRYLQTYGEWNRAAWLAKVRLNPEECADVLRRWVDHLCSPQVNQKSKALLVLLSLGCFFSVAETLHSMRYFDRAALFVEACLKYGAFEVTEDTEKLITAIYADYARSLKNLGFKQGAVLFASKAGAAGKDLLNELESPKEEPIEE
B2: HAUS3 (protein, UniProt Q68CZ6 1-603)
chain: MSCGNEFVETLKKIGYPKADNLNGEDFDWLFEGVEDESFLKWFCGNVNEQNVLSERELEAFSILQKSGKPILEGAALDEALKTCKTSDLKTPRLDDKELEKLEDEVQTLLKLKNLKIQRRNKCQLMASVTSHKSLRLNAKEEEATKKLKQSQGILNAMITKISNELQALTDEVTQLMMFFRHSNLGQGTNPLVFLSQFSLEKYLSQEEQSTAALTLYTKKQFFQGIHEVVESSNEDNFQLLDIQTPSICDNQEILEERRLEMARLQLAYICAQHQLIHLKASNSSMKSSIKWAEESLHSLTSKAVDKENLDAKISSLTSEIMKLEKEVTQIKDRSLPAVVRENAQLLNMPVVKGDFDLQIAKQDYYTARQELVLNQLIKQKASFELLQLSYEIELRKHRDIYRQLENLVQELSQSNMMLYKQLEMLTDPSVSQQINPRNTIDTKDYSTHRLYQVLEGENKKKELFLTHGNLEEVAEKLKQNISLVQDQLAVSAQEHSFFLSKRNKDVDMLCDTLYQGGNQLLLSDQELTEQFHKVESQLNKLNHLLTDILADVKTKRKTLANNKLHQMEREFYVYFLKDEDYLKDIVENLETQSKIKAVSLED
B3: HAUS5 (protein, UniProt O94927 1-633)
chain: MELAQEARELGCWAVEEMGVPVAARAPESTLRRLCLGQGADIWAYILQHVHSQRTVKKIRGNLLWYGHQDSPQVRRKLELEAAVTRLRAEIQELDQSLELMERDTEAQDTAMEQARQHTQDTQRRALLLRAQAGAMRRQQHTLRDPMQRLQNQLRRLQDMERKAKVDVTFGSLTSAALGLEPVVLRDVRTACTLRAQFLQNLLLPQAKRGSLPTPHDDHFGTSYQQWLSSVETLLTNHPPGHVLAALEHLAAEREAEIRSLCSGDGLGDTEISRPQAPDQSDSSQTLPSMVHLIQEGWRTVGVLVSQRSTLLKERQVLTQRLQGLVEEVERRVLGSSERQVLILGLRRCCLWTELKALHDQSQELQDAAGHRQLLLRELQAKQQRILHWRQLVEETQEQVRLLIKGNSASKTRLCRSPGEVLALVQRKVVPTFEAVAPQSRELLRCLEEEVRHLPHILLGTLLRHRPGELKPLPTVLPSIHQLHPASPRGSSFIALSHKLGLPPGKASELLLPAAASLRQDLLLLQDQRSLWCWDLLHMKTSLPPGLPTQELLQIQASQEKQQKENLGQALKRLEKLLKQALERIPELQGIVGDWWEQPGQAALSEELCQGLSLPQWRLRWVQAQGALQKLCS

Biological target: T1, ZFP36L1 (endogenous) (human (endogenous in primary T cells))
Assay: affinity purification with mass spectrometry

Binder	binding
B1	binds
B2	binds
B3	binds
